# Primary screen of a compound library

Data taken from ChEMBL document CHEMBL3988442, “University of Dundee, Small-Polar-MMV Screening Library” (2021).

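Viability assay of Plasmodium falciparum sporozoites; the read-out is not stated. The concentration is filed as 10 mM, unlikely as a test dose, so the dose is not known. Higher reads as lower viability (inferred: compounds with an IC50 in retests scored well above the rest). Strong results were mostly tested again. Size under these conditions: about 34,000 compounds, about 280 of them at 50% or above in at least one test.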

Values are the deposited “Percent Effect”, in %.
The controls that fix the scale are not given in the record; negative values are as filed.
This is an unselected part of the compounds tested.
Two or more numbers in one place are separate tests of the same structure; such repeats can differ widely.

compound,percent effect
COc1cccc(Nc2nc(N3CCCC3)nc3c2CNCC3)c1.Cl,4.348
COc1cc(CNCc2c(C)nn(C)c2N(C)C)ccc1C,-7.2
COc1ccccc1CC(=O)N1CCCC(CNS(C)(=O)=O)C1 (configuration not stated),11.36
Cc1nnc(NC(=O)CN2CCc3c(nc(C4CC4)n3C)C2)s1,5.184 & 1.182 & 8.68
OC(COCc1ccc(Cl)cc1)CN1CC(n2cccn2)C1 (configuration not stated),12.68
Nc1nccc(N2CCC(c3cc(Cc4ccccc4)n[nH]3)CC2)n1,-7.872 & -6.142 & -1.364
CN1CCN(C(=O)c2cnn(-c3ccccc3Cl)c2)CC1,-1.588
Cc1cc(-c2c[nH]nc2C2CCCCN2C(=O)c2ccccc2)on1 (configuration not stated),3.06
CCc1ccc(CN2Cc3nccn3CC(CN3CCOCC3)C2)o1.O=C(O)C(F)(F)F.O=C(O)C(F)(F)F.O=C(O)C(F)(F)F (configuration not stated),1.308
CC(C)c1nc(C2CCCN2Cc2ccncc2Cl)no1 (configuration not stated),9.369
Cn1nccc1-c1nnn2c1COCC(CNCC1CC1)C2.O=C(O)C(F)(F)F.O=C(O)C(F)(F)F (configuration not stated),11.26
CC(C)Cc1nc(CSCC(=O)N2CCC(C)CC2)no1,-8.768
Cc1nc(N(C)C)ncc1C(=O)NCCc1csc(-c2ccncc2)n1,3.122
CCC(C)(N)c1nc(=O)c(C)c(C)[nH]1 (configuration not stated),-7.617
COC(=O)CCNC(=O)c1nnn(-c2ccc(F)cc2)c1C1CC1,-4.061
Cc1cnc2[nH]c(C(F)(F)F)c(CN3CCOCC3)c2c1,-4.973
COc1ccc(CN(C)Cc2nc3c(cnn3C)c(=O)[nH]2)cc1OC,3.819
CCc1nc(C2CCCN2C(=O)CCc2nc(C(C)(C)C)no2)no1 (configuration not stated),6.319
CNc1cc(C(=O)N2CCC3(CC2)Nc2ccccc2NC3=O)ccn1,-5.175
CC(=O)N1CCCC2(C1)CN(C(=O)C1CCCCC1)CCO2 (configuration not stated),1.198
[H][C@]12CC[C@]([H])(CN(S(=O)(=O)c3cccc(Cl)c3)C1)N(CCOC)C2=O,7.872
Cc1cc2c(=O)n3c(nc2s1)CCN(C(=O)c1ccn(C)n1)CC3,-7.043
CCn1nc(C)c2nnn(CC(=O)Nc3cccc(Cl)c3)c(=O)c21,-3.07
COCC1c2c(cnn2C)CCN1C(=O)c1cccn1C.O=C(O)C(F)(F)F (configuration not stated),13.31
Cc1ccccc1CNC(=O)Cn1nc(-c2ccc(F)cc2)oc1=O,-4.535
CNc1nc(CNC(=O)Nc2cc(Cl)ccc2F)cs1,-8.772
NC(=O)C1CCN(Cn2nc(-c3ccccc3)oc2=O)CC1,4.58
O=C(c1nccc2ccccc12)N1CCCCC1Cn1cccn1 (configuration not stated),-17.52
O=S1(=O)CCC(S(=O)(=O)c2cccc(S(=O)(=O)N3CCCCCC3)c2)C1 (configuration not stated),-4.304
CCOC(=O)[C@H]1[C@@H](O)C(=O)N(C)C12CCN(C(=O)CC1CCCC1)CC2,-11.39
O=C(C[S+]([O-])Cc1ccc(F)cc1Cl)N1CCc2sccc2C1 (configuration not stated),-14.58
CN1CCCCC1c1ncc2c(n1)CCN(Cc1ccc(Cl)c(F)c1)C2 (configuration not stated),0.7508
COc1ccc(CCC2CCCCN2)cc1.Cl (configuration not stated),-1.557
CN(C)CCCNC(=O)c1ccc(Cl)cc1Cl,-8.7
O=C(CCn1ccc2ccc(Br)cc21)NCc1ccc(C(=O)O)cc1,3.361
CCCn1cc(CN2CCOCC2c2[nH]ncc2C)cn1 (configuration not stated),-5.582
Cc1occc1C(=O)N1CCC2(CCCN(c3ncc(F)cn3)C2)C1.O=C(O)C(F)(F)F (configuration not stated),12.4
O=C(NCCc1nnc2n1CCC2)NCC1(c2ccc(F)cc2)CC1,-4.029
Cc1ccc(NC2CCN(C(=O)CCCc3cccs3)CC2)nn1,-25.16 & -4.869 & -33.12
CCCc1noc(C(C)N(CC)Cc2ccco2)n1 (configuration not stated),6.14
CCc1cc(C(F)(F)F)c2c(C3CCCN(C(=O)COC)C3)noc2n1 (configuration not stated),4.827
O=C(O)C(F)(F)F.[H][C@@]12CN(c3ccc(C)nn3)C[C@@H](C(=O)NCC3CC3)[C@]1([H])CCO2,5.051
Cc1ccc(S(=O)(=O)N(C)Cc2cnccn2)cc1N(C)C,10.43
CC(C)N(C)Cc1cnc2n1CCN(Cc1ccc(F)cc1)C2.O=C(O)C(F)(F)F.O=C(O)C(F)(F)F,-2.596
COCCOc1ncccc1CNCc1c(C)nn(C)c1N(C)C,5.6
Cc1cc(C)n(CC2CCCN2C(=O)c2ccc3nncn3c2)n1 (configuration not stated),-8.61
Br.Cc1cc(C)nc(NCCC(=O)NCCn2ccnc2C)n1,-0.4183
Cc1cc(NCCc2cnccn2)nc(-c2ccccc2O)n1,22.21 & 30.19 & 30.07
CN(C)S(=O)(=O)CCCN1CCc2c(ncn2C2CC2)C1,-30.91 & -30.86
Cc1nn(C)cc1CN1CCCC(n2c(=O)oc3ccc(Cl)cc32)C1 (configuration not stated),2.323
Cc1ccc(N2CC3(CCN(C(=O)c4ccoc4)C3)C2)nn1,9.378
[H][C@@]12COC[C@H](C(=O)N3CCOCC3)[C@]1([H])CN(C1CCCC1)C2,0.5963
CC1=NN(c2ccc(C(=O)N3CCCC(n4ccnc4)C3)cc2)CC1 (configuration not stated),11.27
Cn1c(C(F)(F)F)nn(CCNC(=O)c2cnc3ccccc3n2)c1=O,-8.619
CCNC(=O)CCN1CCCC1c1cccc2c1OCCO2 (configuration not stated),-12.5
Cc1ccc(N2CCC3(CCN(C(=O)c4ccsc4)CC3)CC2)nn1,-4.579
O=C(O)C(F)(F)F.[H][C@@]12CCN(c3nnc(C)s3)C[C@]1([H])O[C@H](C(=O)N1CCCC1)C2,3.694
COc1ncccc1C(=O)N1CCC2(CC1)CC(OC)CO2.O=C(O)C(F)(F)F (configuration not stated),6.13
Cc1cn2c(n1)CCC(NC(=O)COCCOc1ccccc1)C2 (configuration not stated),-1.225
O=C(O)C(F)(F)F.[H][C@@]12CN(CC3CC3)CC[C@]1([H])CN(c1cnccn1)C2,0.1688
COc1ccccc1C(O)CNC(=O)NCc1cccnc1OC (configuration not stated),-6.168
Cc1c(C(=O)O)cnn1-c1ccc(-c2nc(C3CC3)no2)cn1,-0.968 & 0.8114
CC(C)OCCCN(Cc1ccncc1)Cc1cc(F)cc(F)c1.Cl,11.64
[H][C@]12CCN(C(=O)c3cc(C)oc3C)C[C@@]1([H])OCCN(c1ncccn1)C2,-3.2
COCCN1CCCC(c2nc(C)n3c(C)c(C)sc23)C1 (configuration not stated),6.211
O=C(c1ccc2c(c1)OCO2)N1C[C@@H](CN2CCCCC2)[C@@H](CO)C1,-27.8 & -27.28

6 of the entries, repeated:

COC(=O)CCNC(=O)c1nnn(-c2ccc(F)cc2)c1C1CC1 gave -4.061%.
O=C(C[S+]([O-])Cc1ccc(F)cc1Cl)N1CCc2sccc2C1 (configuration not stated) gave -14.58%.
[H][C@]12CCN(C(=O)c3cc(C)oc3C)C[C@@]1([H])OCCN(c1ncccn1)C2 gave -3.2%.
[H][C@]12CC[C@]([H])(CN(S(=O)(=O)c3cccc(Cl)c3)C1)N(CCOC)C2=O gave 7.872%.
CN(C)CCCNC(=O)c1ccc(Cl)cc1Cl gave -8.7%.
Cc1cnc2[nH]c(C(F)(F)F)c(CN3CCOCC3)c2c1 gave -4.973%.